Test results published in US20030167129A1, “Binding compounds and methods for identifying binding compounds” (priority 2000, published 2003).
No constants are given. Whether binding was seen depends on the method and setting. Some results given as binding are weak or reduced against the parent protein; the word gives no strength.

Chains of the proteins cited; added tags and fusions are not shown.
UniProt P61073: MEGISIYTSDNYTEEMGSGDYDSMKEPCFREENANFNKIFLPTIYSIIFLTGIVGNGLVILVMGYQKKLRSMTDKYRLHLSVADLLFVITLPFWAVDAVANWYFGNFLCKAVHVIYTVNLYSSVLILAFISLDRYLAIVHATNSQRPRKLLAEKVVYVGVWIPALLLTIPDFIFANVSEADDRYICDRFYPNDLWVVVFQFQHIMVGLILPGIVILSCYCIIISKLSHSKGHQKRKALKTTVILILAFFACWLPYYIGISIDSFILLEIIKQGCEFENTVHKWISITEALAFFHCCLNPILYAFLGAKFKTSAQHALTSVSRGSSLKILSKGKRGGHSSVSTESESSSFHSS

Biological target: CXCR4-GST (human) (UniProt P61073)
Assay: phage display (NEB PhD C7C) on immobilized functional CXCR4, elution with SDF1α or glycine pH 2.2

B1: Phage sequence S-L-T-E-P-S-L (peptide)
peptide: SLTEPSL
B1 was tested. Which binding did it give?
Its binding is “binds”.
